Results deposited as PubChem BioAssay AID686938 (Drosophila RNAi Screening Center, 2013)
Test: 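Fly genes required for calcium entry once internal stores are emptied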 (primary screen). Cell system: Drosophila S2R+ cells. Reagent: long dsRNA against Drosophila genes, about 0.25 µg dsRNA per well, roughly 10,000 cells. Duration: 5 days of knock-down before the calcium assay. Treatment: thapsigargin (SERCA pump blocker) to empty calcium stores; entry signal taken 4 min after adding it. Detection: 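Duplicate raw fluo-4 intensities per well from a plate reader, at rest and four minutes after thapsigargin emptied calcium stores; entry-to-rest ratio filled for only some wells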. Reading the numbers: calcium entry signal: higher = stronger calcium signal after store depletion; entry to resting ratio: higher = more calcium entry relative to resting level; resting calcium signal: higher = higher resting calcium signal. Call rule: 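Called when the plate z-score of the entry-to-rest ratio, mean of duplicates, falls below −3; wells with low overall dye signal (Fmax z below −2) or more than five off-targets excluded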. Calls: active = strongly reduced calcium entry; inactive = no strong reduction.
In all, the deposit lists about 23,000 reagents; this is an unselected part of those with a known target gene and a result. In the full data, 75 (0.33%) were called active. 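Raw plate signals without normalisation; calls rest on plate z-scores that were not deposited; ratio present for only 364 wells.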 Entries without a mark were called inactive. A plus sign joins genes that one reagent is predicted to hit. Not given: the dose of the treatment.

no.	Target gene	DRSC id	calcium entry signal, replicate 1 (fluorescence units)	calcium entry signal, replicate 2 (fluorescence units)	entry to resting ratio	resting calcium signal, replicate 1 (fluorescence units)	resting calcium signal, replicate 2 (fluorescence units)
1	CG2955	DRSC00552	4.93e7			3.25e7	
2	HDAC1	DRSC08696	3.13e7	2.60e7		2.80e7	1.27e7
3	sit	DRSC15760	3.66e7	5.07e7		1.73e7	1.87e7
4	Psa	DRSC08152	3.40e7	3.16e7		1.55e7	1.62e7
5	CG14961	DRSC08420	2.83e7	3.80e7		1.55e7	1.69e7
6	CG14855	DRSC14979	3.18e7	5.51e7		1.58e7	6.68e7
7	CG9231	DRSC11054	2.71e7	3.70e7		1.17e7	2.54e7
8	ND-23	DRSC15526	2.44e7	2.63e7		1.13e7	1.09e7
9	beag	DRSC15296	4.30e7	4.58e7		1.61e7	1.98e7
10	CG10013	DRSC14175	3.79e7	5.04e7		1.67e7	2.26e7
11	CheA84a	DRSC12669	3.22e7	6.42e7		1.60e7	2.87e7
12	CG31710	DRSC01089	4.07e7	5.54e7		2.05e7	2.75e7
13	CG31710	DRSC22863	1.68e7	3.60e7		9.14e6	1.51e7
14	Culd	DRSC10262	3.02e7	2.05e7		2.29e7	8.52e6
15	bbg	DRSC11077	4.51e7	3.79e7		2.24e7	1.50e7
16	bbg	DRSC11079	3.75e7 (active)	3.76e7		1.75e7	1.74e7
17	spag	DRSC04717	3.25e7	3.77e7		1.66e7	1.93e7
18	beta4GalNAcTB	DRSC14869	3.65e7	6.35e7		2.01e7	2.60e7
19	CG10565	DRSC11620	4.11e7	4.32e7		1.85e7	2.88e7
20	CG13086	DRSC02190	6.29e7	5.07e7		3.19e7	1.98e7
21	CG32006	DRSC21768	3.55e7	3.62e7		1.96e7	1.60e7
22	CG10053	DRSC12502	3.98e7	4.68e7		1.70e7	2.08e7
23	CG33543	DRSC00384	2.49e7	2.20e7		1.24e7	1.01e7
24	CG33543	DRSC00385	2.19e7	2.21e7		1.10e7	1.07e7
25	Ppa	DRSC04598	3.97e7	5.44e7		2.01e7	2.48e7
26	CG33469	DRSC22900	4.04e7	3.67e7		2.31e7	1.73e7
27	l(1)G0289	DRSC18215	4.07e7	3.91e7		1.92e7	1.85e7
28	akirin	DRSC11000	4.74e7	3.11e7		3.66e7	1.55e7
29	Cyp316a1	DRSC11130	3.12e7	4.11e7		1.46e7	1.78e7
30	CG8461	DRSC16424	3.01e7	3.21e7		1.39e7	1.38e7
31	CheB42c	DRSC04972	3.50e7	3.70e7		2.36e7	1.71e7
32	Frq1	DRSC19961	3.53e7	3.47e7		1.85e7	1.66e7
33	CAH9	DRSC15963	4.27e7	5.58e7		2.02e7	2.26e7
34	Tgi	DRSC09793	2.93e7	4.50e7		1.66e7	2.05e7
35	Tgi	DRSC09794	3.06e7	5.20e7		1.64e7	2.47e7
36	CG17329	DRSC01926	4.78e7	3.46e7		2.11e7	1.73e7
37	Syt4	DRSC12606	4.24e7	4.21e7		2.10e7	2.12e7
38	CG13137	DRSC02234	2.21e7	3.61e7		1.09e7	1.62e7
39	Ance-3	DRSC02648	4.30e7	2.88e7		1.85e7	1.39e7
40	Ance-3	DRSC02649	5.31e7	3.76e7		2.32e7	1.75e7
41	Acat1	DRSC17766	4.59e7	3.86e7		2.09e7	1.92e7
42	trv	DRSC13846	3.73e7	4.05e7		1.81e7	1.97e7
43	trv	DRSC14559	3.51e7	5.93e7		1.88e7	2.09e7
44	trv	DRSC14560	2.94e7	5.47e7		1.57e7	2.43e7
45	trv	DRSC14561	3.51e7	5.28e7		1.87e7	2.22e7
46	CG18547	DRSC15345	3.72e7	2.97e7		1.87e7	1.55e7
47	CG5909	DRSC15914	4.12e7	6.06e7		2.14e7	2.56e7
48	CG1172	DRSC12182	3.26e7	2.85e7		1.59e7	1.41e7
49	CG1172	DRSC21954	3.49e7	3.67e7		1.72e7	2.09e7
50	Cpr47Ed	DRSC07331	2.66e7	3.53e7		1.46e7	1.46e7
51	Def	DRSC07398	4.92e7	3.69e7		2.09e7	1.61e7
52	CG17470	DRSC02621	4.12e7			2.15e7	
53	CG4393	DRSC15573	4.52e7	5.17e7		2.39e7	1.95e7
54	Klp3A	DRSC18676	5.03e7	4.81e7		2.14e7	2.13e7
55	Klp3A	DRSC21625	3.93e7	4.02e7		2.19e7	1.78e7
56	CG15403	DRSC00417	2.64e7	2.54e7		1.27e7	1.27e7
57	WRNexo	DRSC16278	4.83e7	4.35e7		2.19e7	1.81e7
58	Tektin-A	DRSC01921	4.56e7			2.31e7	
59	Dus4	DRSC02066	4.46e7			2.29e7	
60	Rga + asRNA:ASTR	DRSC12364	5.36e7	3.61e7		2.78e7	1.79e7
61	CG13075	DRSC09958	4.92e7	6.60e7		2.46e7	2.61e7
62	Scm	DRSC16853	3.89e7	3.94e7		1.90e7	1.97e7
63	CG15370	DRSC18042	2.27e7	3.80e7		1.34e7	2.04e7
64	CG15370	DRSC23277	4.37e7	3.70e7		1.72e7	1.41e7
65	Scgdelta	DRSC18544	4.63e7	4.72e7	2	2.29e7	2.15e7
66	vers	DRSC10715	5.06e7	3.59e7		3.70e7	1.87e7
67	vers	DRSC23232	4.15e7	2.97e7		2.43e7	1.40e7
68	RpS3	DRSC16838	1.16e7	1.02e7		8.98e6	8.32e6
69	Octbeta1R	DRSC16134	4.07e7	3.92e7		4.28e7	1.74e7
70	CG13601	DRSC14604	3.10e7	3.06e7		1.55e7	1.41e7
71	ebd2	DRSC11682	3.01e7	4.29e7		1.62e7	2.08e7
72	CG2444	DRSC19846	3.70e7	4.08e7		1.95e7	1.89e7
73	SmydA-8	DRSC18797	4.51e7	5.70e7	2.2	2.08e7	2.42e7
74	SmydA-8	DRSC22064	3.88e7	5.70e7		1.80e7	2.72e7
75	SmydA-8	DRSC22263	2.74e7	4.27e7		1.31e7	2.02e7

7 entries already listed, ordered by “calcium entry signal, replicate 2 (fluorescence units)”, low to high.
Target gene	DRSC id	calcium entry signal, replicate 1 (fluorescence units)	calcium entry signal, replicate 2 (fluorescence units)	entry to resting ratio	resting calcium signal, replicate 1 (fluorescence units)	resting calcium signal, replicate 2 (fluorescence units)
CG33543	DRSC00384	2.49e7	2.20e7		1.24e7	1.01e7
CG33543	DRSC00385	2.19e7	2.21e7		1.10e7	1.07e7
CG32006	DRSC21768	3.55e7	3.62e7		1.96e7	1.60e7
CG10565	DRSC11620	4.11e7	4.32e7		1.85e7	2.88e7
CG10053	DRSC12502	3.98e7	4.68e7		1.70e7	2.08e7
CG13086	DRSC02190	6.29e7	5.07e7		3.19e7	1.98e7
beta4GalNAcTB	DRSC14869	3.65e7	6.35e7		2.01e7	2.60e7
